Source: patent publication US20210148918A1, “MODIFYING SURFACE OF A LIVE CELL AND THE USES THEREOF” (Purdue Research Foundation, priority 2018, published 2021)
“Also recorded” adds a separate entry of the source. For at least one compound, name, drawing or mass did not settle the structure.

Tested on: Jurkat T cells
Assay: Cell-surface conjugation and live cell imaging (confocal)
Type: cell-based, human
Conditions: 0.1 μg/mL, 30 minutes at RT, Hoechst 33342 counterstain

Compound: O=C1OC2(c3ccc(O)cc3Oc3cc(O)ccc32)c2ccccc21 [Fluorescein, fluorescein]
- cell surface conjugation versus internalization (fluorescence localisation): internalize inside the Jurkat T cells; also recorded: internalized by the cells
